Measured values as given in patent US20230250160A1 (HOBER BIOTECH, published 2023).
Numbering of substitutions follows the chain as printed. Results are given in words; binding and its absence hold for the method and conditions named. Some results given as binding are weak or reduced against the parent protein; the word gives no strength.

Chains of the proteins cited; added tags and fusions are not shown. Residues count along the entry.
UniProt P03950, residues 25-147: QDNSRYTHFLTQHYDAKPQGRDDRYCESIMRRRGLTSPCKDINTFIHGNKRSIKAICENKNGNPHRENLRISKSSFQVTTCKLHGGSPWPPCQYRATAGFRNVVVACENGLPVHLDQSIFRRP
UniProt P02768, residues 25-609: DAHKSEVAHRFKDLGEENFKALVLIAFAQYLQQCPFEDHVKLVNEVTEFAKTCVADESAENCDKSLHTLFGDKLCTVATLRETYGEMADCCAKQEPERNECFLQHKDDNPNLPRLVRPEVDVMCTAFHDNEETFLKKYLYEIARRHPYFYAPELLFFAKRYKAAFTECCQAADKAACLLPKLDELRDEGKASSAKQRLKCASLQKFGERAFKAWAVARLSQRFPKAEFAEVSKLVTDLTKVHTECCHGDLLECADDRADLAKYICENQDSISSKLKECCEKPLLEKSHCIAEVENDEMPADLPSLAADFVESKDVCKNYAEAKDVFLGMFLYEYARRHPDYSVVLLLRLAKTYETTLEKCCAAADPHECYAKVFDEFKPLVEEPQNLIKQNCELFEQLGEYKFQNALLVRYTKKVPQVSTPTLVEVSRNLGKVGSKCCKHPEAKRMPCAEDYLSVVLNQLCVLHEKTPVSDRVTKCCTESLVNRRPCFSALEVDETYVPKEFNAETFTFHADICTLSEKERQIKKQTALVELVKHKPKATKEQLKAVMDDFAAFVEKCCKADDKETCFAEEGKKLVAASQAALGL
UniProt P01375, residues 77-233: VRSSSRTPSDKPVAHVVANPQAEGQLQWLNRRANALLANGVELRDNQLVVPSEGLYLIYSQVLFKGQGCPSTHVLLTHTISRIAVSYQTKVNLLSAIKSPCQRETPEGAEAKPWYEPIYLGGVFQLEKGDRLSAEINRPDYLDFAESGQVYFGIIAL

Key:
[1] = biological target: angiogenin (human (produced in the Human Secretome Project)) (UniProt P03950); assay: SPR capture assay, ADAPT variant captured on immobilised HSA, then 500 nM angiogenin injected
[2] = biological target: angiogenin (human (produced in the Human Secretome Project)) (UniProt P03950); assay: SPR multi-cycle analysis
[3] = biological target: angiogenin (human (produced in the Human Secretome Project)) (UniProt P03950); assay: SPR capture assay, ADAPT captured on HSA, target injected
Human Serum Albumin [4] = biological target: T1, Human Serum Albumin (human, UniProt P02768 25-609); assay: as above
T1 construct: also called HSA

Human Serum Albumin [5] = biological target: T1, Human Serum Albumin; assay: SPR capture assay, ADAPT variant injected over immobilised HSA
Human Serum Albumin [6] = biological target: T1, Human Serum Albumin; assay: SPR capture assay or HSA preincubation
Human Serum Albumin [7] = biological target: T1, Human Serum Albumin; assay: SPR, compared with the reported affinity of ABD035
[8] = biological target: T2, C-reactive protein (human (produced in the Human Secretome Project)) (UniProt P02741); assay: SPR multi-cycle analysis
T2 sequence (looked up): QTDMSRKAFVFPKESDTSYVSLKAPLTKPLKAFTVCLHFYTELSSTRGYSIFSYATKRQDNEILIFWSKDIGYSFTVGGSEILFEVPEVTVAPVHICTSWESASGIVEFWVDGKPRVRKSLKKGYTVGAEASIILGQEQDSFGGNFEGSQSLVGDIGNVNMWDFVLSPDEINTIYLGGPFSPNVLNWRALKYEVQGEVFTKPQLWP

[9] = biological target: T3, myeloid-derived growth factor (human (produced in the Human Secretome Project)) (UniProt Q969H8); assay: SPR capture assay, ADAPT variant captured on immobilised HSA, then 500 nM MYDGF injected
T3 sequence (looked up): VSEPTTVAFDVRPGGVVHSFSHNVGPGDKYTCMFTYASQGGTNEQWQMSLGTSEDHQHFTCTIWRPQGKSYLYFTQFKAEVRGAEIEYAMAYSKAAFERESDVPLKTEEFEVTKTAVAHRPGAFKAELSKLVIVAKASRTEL

[10] = biological target: T3, myeloid-derived growth factor (human (produced in the Human Secretome Project)); assay: SPR multi-cycle analysis
[11] = biological target: T3, myeloid-derived growth factor (human (produced in the Human Secretome Project)); assay: SPR capture assay, ADAPT captured on HSA, target injected
[12] = biological target: T4, renin (human (produced in the Human Secretome Project)) (UniProt P00797); assay: SPR multi-cycle analysis
T4 sequence (looked up): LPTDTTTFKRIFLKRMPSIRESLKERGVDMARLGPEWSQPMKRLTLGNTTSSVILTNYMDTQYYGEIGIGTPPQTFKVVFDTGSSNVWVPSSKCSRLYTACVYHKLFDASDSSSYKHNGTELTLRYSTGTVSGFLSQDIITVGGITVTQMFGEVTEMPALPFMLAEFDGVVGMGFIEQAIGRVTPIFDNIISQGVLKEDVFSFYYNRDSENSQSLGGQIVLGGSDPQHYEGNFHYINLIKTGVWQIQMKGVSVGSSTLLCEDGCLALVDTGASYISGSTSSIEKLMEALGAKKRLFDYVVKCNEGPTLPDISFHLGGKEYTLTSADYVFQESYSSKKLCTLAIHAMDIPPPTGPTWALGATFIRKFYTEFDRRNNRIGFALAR

[13] = biological target: tumor necrosis factor alpha (human (produced in the Human Secretome Project)) (UniProt P01375); assay: SPR multi-cycle analysis
[14] = biological target: tumor necrosis factor alpha (human (produced in the Human Secretome Project)) (UniProt P01375); assay: SPR capture assay, ADAPT captured on HSA, target injected
[15] = biological target: tumor necrosis factor alpha (human (produced in the Human Secretome Project)) (UniProt P01375); assay: SPR capture assay, ADAPT variant captured on immobilised HSA, then 500 nM TNFα injected
Human Serum Albumin [16] = biological target: T1, Human Serum Albumin; assay: phage display selection after two panning rounds; simultaneous binding of Insulin and albumin
Human Serum Albumin [17] = biological target: T1, Human Serum Albumin; assay: SPR sensorgrams, FIG. 2A
Human Serum Albumin [18] = biological target: T1, Human Serum Albumin; assay: analytical SEC (Superdex 75 5/150), samples mixed 1:1 or 1:1:1 and injected, overlaid with the single partners
Human Serum Albumin [19] = biological target: T1, Human Serum Albumin; assay: SPR (Biacore), ADAPT preincubated with a molar excess of soluble HSA, injected at 31.25-500 nM over immobilised HSA (soluble HSA as competitor)
Human Serum Albumin [20] = biological target: T1, Human Serum Albumin; assay: SPR
Human Serum Albumin [21] = biological target: T1, Human Serum Albumin; assay: SPR (Biacore), ADAPT injected alone at 31.25-500 nM over immobilised HSA
Human Serum Albumin [22] = biological target: T1, Human Serum Albumin; assay: size-exclusion chromatography of HSA, ADAPT and insulin mixed 1:1:1
[23] = biological target: tumor necrosis factor alpha (human (produced in the Human Secretome Project)) (UniProt P01375); assay: SPR capture assay, ADAPT variant captured on immobilised HSA, then 200 nM TNFα injected

Measured: binding

B1: ADAPT variant ANG_13 (designed binder)
chain: LHEAKDWADYELWSYGVSDFYRALIWKAKTVEGVEALKLHILAALP
binds: [1] | [2] | [3] | Human Serum Albumin [4] | Human Serum Albumin [5] | Human Serum Albumin [6] | Human Serum Albumin [7]

B2: ADAPT variant CRP_38 (designed binder)
chain: LKVAKIIAFHELWEYGVSDFYLSLIDKAKTVEGVEALKLHILAALP
binds: [8] | Human Serum Albumin [7]

B3: ADAPT variant CRP_48 (designed binder)
chain: B2 chain with K2H, V3Y, I7M, E14Q, S23Q
binds: [8] | Human Serum Albumin [7]

B4: ADAPT variant CRP_09 (designed binder)
chain: LRVAKSMAWHELWSYGVSDFYLRLIDKAKTVEGVEALKLHILAALP
binds: [8] | Human Serum Albumin [7]

B5: ADAPT variant ANG_16 (designed binder)
chain: LYVAKDNADWELWQYGVSDFYRSLIWKAKTVEGVEALKLHILAALP
binds: [1] | [2] | [3] | Human Serum Albumin [4] | Human Serum Albumin [5] | Human Serum Albumin [6] | Human Serum Albumin [7]

B6: ADAPT variant ANG_02 (designed binder)
chain: B5 chain with V3W, N7Y, W10Y
notes: also called ANG_2
binds: [1] | [2] | [3] | Human Serum Albumin [4] | Human Serum Albumin [5] | Human Serum Albumin [6] | Human Serum Albumin [7]

B7: ADAPT variant ANG_06 (designed binder)
chain: B5 chain with Y2W, V3A, N7D, S23A
notes: also called ANG_6
binds: [1] | [2] | [3] | Human Serum Albumin [4] | Human Serum Albumin [5] | Human Serum Albumin [6] | Human Serum Albumin [7]

B8: ADAPT variant MYDGF_07 (designed binder)
chain: LWWAKVWAVAELQKYGVSDFYFKLIDKAKTVEGVEALKLHILAALP
binds: [9] | [10] | Human Serum Albumin [4] | [11] | Human Serum Albumin [5] | Human Serum Albumin [6] | Human Serum Albumin [7]

B9: ADAPT variant CRP_23 (designed binder)
chain: LSKAKAQAWHELYYYGVSDFYLSLIDKAKTVEGVEALKLHILAALP
binds: [8] | Human Serum Albumin [7]

B10: ADAPT variant REN_40 (designed binder)
chain: LMWAKAEAAIELVDYGVSDFYQYLISKAKTVEGVEALKLHILAALP
binds: [12] | Human Serum Albumin [7]

B11: ADAPT variant REN_01 (designed binder)
chain: LYHAKWMASLELAKYGVSDFYWNLISKAKTVEGVEALKLHILAALP
binds: [12] | Human Serum Albumin [7]

B12: ADAPT variant MYDGF_08 (designed binder)
chain: LWWAKVSAIKELQAYGVSDFYYMLITKAKTVEGVEALKLHILAALP
binds: [9] | [10] | Human Serum Albumin [4] | [11] | Human Serum Albumin [5] | Human Serum Albumin [6] | Human Serum Albumin [7]

B13: ADAPT variant TNFα_09 (designed binder)
chain: LIWAKASAVRELHRYGVSDFYYELIVKAKTVEGVEALKLHILAALP
binds: [13] | [14] | Human Serum Albumin [4] | Human Serum Albumin [5] | [15] | Human Serum Albumin [6] | Human Serum Albumin [7]

B14: ADAPT variant Insulin_02 (designed binder)
chain: LAIAKAYAQYELSFYGVSDFYRELIVKAKTVEGVEALKLHILAALP
notes: also called INS_02
binds: Human Serum Albumin [16] | Human Serum Albumin [17] | Human Serum Albumin [18] | Human Serum Albumin [19] | Human Serum Albumin [4] | Human Serum Albumin [20] | Human Serum Albumin [5] | Human Serum Albumin [21] | Human Serum Albumin [22] | Human Serum Albumin [7]

B15: ADAPT variant Insulin_03 (designed binder)
chain: B14 chain with I3V, Q9K, S13A, R22N, V26L
notes: also called INS_03
binds: Human Serum Albumin [16] | Human Serum Albumin [4] | Human Serum Albumin [5] | Human Serum Albumin [6] | Human Serum Albumin [7]

B16: ADAPT variant Insulin_01 (designed binder)
chain: B14 chain with A2V, S13A, R22S, E23D, V26K
notes: also called INS_01
binds: Human Serum Albumin [16] | Human Serum Albumin [4] | Human Serum Albumin [5] | Human Serum Albumin [6] | Human Serum Albumin [7]

B17: ADAPT variant TNFα_05 (designed binder)
chain: LIWAKAEAVQELFMYGVSDFYYDLIIKAKTVEGVEALKLHILAALP
notes: Single domain of about 6 kDa, made in E. coli, purified on HSA resin
binds: [13] | [14] | Human Serum Albumin [4] | Human Serum Albumin [5] | [23] | Human Serum Albumin [6] | Human Serum Albumin [7]
